# In the supplement of paper PMC10032668:
# By UniProt entry, the sequences of proteins in these tests, tags left out.
# ATXN2, Q99700, UniProt Q99700, whole entry: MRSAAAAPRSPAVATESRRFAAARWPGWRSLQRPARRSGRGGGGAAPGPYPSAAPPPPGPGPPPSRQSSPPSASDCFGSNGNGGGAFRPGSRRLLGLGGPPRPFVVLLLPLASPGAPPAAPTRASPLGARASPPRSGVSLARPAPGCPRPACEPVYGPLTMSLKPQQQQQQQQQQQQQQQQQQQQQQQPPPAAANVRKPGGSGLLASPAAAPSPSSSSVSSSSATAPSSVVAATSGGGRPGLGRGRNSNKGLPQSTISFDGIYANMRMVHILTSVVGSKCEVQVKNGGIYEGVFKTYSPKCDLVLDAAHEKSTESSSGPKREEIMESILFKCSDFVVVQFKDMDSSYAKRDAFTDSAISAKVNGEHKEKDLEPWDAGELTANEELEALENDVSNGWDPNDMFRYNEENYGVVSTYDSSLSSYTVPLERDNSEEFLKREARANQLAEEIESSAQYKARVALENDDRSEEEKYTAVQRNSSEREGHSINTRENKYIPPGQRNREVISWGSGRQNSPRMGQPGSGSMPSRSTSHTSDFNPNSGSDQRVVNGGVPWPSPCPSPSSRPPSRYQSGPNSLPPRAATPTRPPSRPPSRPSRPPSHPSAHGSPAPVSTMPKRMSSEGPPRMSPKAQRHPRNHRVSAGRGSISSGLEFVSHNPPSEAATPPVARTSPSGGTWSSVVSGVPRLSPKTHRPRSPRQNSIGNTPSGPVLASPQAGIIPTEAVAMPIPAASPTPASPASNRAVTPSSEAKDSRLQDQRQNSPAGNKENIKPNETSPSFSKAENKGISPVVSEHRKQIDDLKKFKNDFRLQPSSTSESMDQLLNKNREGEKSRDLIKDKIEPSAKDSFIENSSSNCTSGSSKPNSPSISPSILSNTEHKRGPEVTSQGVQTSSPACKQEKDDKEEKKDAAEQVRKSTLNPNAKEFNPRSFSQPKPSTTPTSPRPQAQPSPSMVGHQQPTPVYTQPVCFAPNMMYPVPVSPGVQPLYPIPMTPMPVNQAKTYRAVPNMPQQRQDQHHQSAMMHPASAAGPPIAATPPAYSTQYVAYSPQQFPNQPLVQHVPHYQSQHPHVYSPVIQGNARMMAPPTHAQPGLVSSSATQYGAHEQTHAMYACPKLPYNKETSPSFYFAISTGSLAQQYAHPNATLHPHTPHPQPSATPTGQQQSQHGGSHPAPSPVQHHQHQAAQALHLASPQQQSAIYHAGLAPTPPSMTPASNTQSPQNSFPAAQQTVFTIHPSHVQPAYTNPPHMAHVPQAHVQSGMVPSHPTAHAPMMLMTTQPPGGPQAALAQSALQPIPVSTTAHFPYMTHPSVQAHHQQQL
# BUB3, O43684, UniProt O43684, whole entry: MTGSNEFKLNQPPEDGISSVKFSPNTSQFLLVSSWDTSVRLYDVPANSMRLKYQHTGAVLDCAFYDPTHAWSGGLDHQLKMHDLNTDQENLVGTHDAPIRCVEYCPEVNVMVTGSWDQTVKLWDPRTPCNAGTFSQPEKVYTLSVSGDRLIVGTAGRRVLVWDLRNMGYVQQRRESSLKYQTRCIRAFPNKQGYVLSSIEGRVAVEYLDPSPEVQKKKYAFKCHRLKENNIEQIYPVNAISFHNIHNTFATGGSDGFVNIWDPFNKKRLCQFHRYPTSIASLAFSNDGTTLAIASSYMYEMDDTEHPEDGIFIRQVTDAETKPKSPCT
# CRIPT, Q9P021, UniProt Q9P021, whole entry: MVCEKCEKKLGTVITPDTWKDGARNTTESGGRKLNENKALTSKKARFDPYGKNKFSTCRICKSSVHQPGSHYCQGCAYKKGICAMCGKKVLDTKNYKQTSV
# DNAJB1, P25685, UniProt P25685, whole entry: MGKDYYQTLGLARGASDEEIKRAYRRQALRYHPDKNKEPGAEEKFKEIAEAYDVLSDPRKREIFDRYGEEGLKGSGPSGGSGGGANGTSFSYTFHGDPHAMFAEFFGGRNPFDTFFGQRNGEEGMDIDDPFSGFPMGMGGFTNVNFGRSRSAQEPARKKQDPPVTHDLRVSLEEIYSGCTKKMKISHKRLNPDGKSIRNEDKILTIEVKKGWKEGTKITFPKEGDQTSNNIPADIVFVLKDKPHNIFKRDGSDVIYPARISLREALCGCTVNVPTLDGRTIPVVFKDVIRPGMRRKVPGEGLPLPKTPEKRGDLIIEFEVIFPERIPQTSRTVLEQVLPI
# KHDRBS1, Q07666, UniProt Q07666, whole entry: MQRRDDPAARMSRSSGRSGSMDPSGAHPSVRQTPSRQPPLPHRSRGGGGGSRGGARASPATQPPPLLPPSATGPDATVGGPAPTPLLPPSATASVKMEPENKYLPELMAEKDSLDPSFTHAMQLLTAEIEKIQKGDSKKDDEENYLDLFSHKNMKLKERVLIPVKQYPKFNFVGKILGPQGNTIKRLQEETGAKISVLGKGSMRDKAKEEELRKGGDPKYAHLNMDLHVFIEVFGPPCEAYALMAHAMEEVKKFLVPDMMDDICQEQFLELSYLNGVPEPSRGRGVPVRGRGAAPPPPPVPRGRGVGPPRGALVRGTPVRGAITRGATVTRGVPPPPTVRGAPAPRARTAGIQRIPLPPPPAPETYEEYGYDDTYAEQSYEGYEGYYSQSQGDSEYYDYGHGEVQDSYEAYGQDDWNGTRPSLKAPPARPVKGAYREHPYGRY
# ± gives the standard deviation of the averaged measurements. This is one part of the list. The list holds hits alone, and they repeat only in part.
# Tests used:
# Assay in all cases: PRISMA enrichment of interactor (LFQ) in peptide spot vs all other peptide spots (log2 fold change); higher = stronger / more specific binding of the interactor to the peptide
# [1] = molecular target: ACAA1, P09110
# Description: (§1)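 PRISMA: 221 full-length sORF-encoded peptides (3-15 aa), plus SOS1/GLUT1 control peptides, were spot-synthesized on cellulose membranes in triplicate. Membranes were incubated with HEK293T lysate, and bound proteins were identified by LC-MS/MS with LFQ. Enrichment is the log2 fold change versus all other peptide spots; only significant interactors are listed (cutoff c=6, x0=2.8).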
# [2] = molecular target: ACAD11, Q709F0
# Description: as §1
# [3] = molecular target: ALKBH2, Q6NS38
# Description: as §1
# [4] = molecular target: ALKBH5, Q6P6C2
# Description: as §1
# [5] = molecular target: ALYREF, Q86V81
# Description: as §1
# [6] = molecular target: ANKRD30B, Q9BXX2
# Description: as §1
# [7] = molecular target: ATXN2, Q99700
# Description: as §1
# [8] = molecular target: ATXN2L, Q8WWM7
# Description: as §1
# [9] = molecular target: BAIAP2, Q9UQB8
# Description: as §1
# [10] = molecular target: BCKDK, O14874
# Description: as §1
# [11] = molecular target: BUB3, O43684
# Description: as §1
# [12] = molecular target: C19orf53, Q9UNZ5
# Description: as §1
# [13] = molecular target: C1orf131, Q8NDD1
# Description: as §1
# [14] = molecular target: C8orf33, Q9H7E9
# Description: as §1
# [15] = molecular target: CC2D1A, Q6P1N0
# Description: as §1
# [16] = molecular target: CCDC137, Q6PK04
# Description: as §1
# [17] = molecular target: CCDC59, Q9P031
# Description: as §1
# [18] = molecular target: CHID1, Q9BWS9
# Description: as §1
# [19] = molecular target: CHTOP, Q9Y3Y2
# Description: as §1
# [20] = molecular target: CIRBP, Q14011
# Description: as §1
# [21] = molecular target: CKMT1A, P12532
# Description: as §1
# [22] = molecular target: COA7, Q96BR5
# Description: as §1
# [23] = molecular target: CPSF7, Q8N684
# Description: as §1
# [24] = molecular target: CRIPT, Q9P021
# Description: as §1
# [25] = molecular target: CSNK1A1, P48729
# Description: as §1
# [26] = molecular target: CSNK1E, P49674
# Description: as §1
# [27] = molecular target: CSRP2, Q16527
# Description: as §1
# [28] = molecular target: CXorf56, Q9H5V9
# Description: as §1
# [29] = molecular target: DAZAP1, Q96EP5
# Description: as §1
# [30] = molecular target: DDX1, Q92499
# Description: as §1
# [31] = molecular target: DDX47, Q9H0S4
# Description: as §1
# [32] = molecular target: DDX49, Q9Y6V7
# Description: as §1
# [33] = molecular target: DDX6, P26196
# Description: as §1
# [34] = molecular target: DECR2, Q9NUI1
# Description: as §1
# [35] = molecular target: DERPC, P0CG12
# Description: as §1
# [36] = molecular target: DNAJA3, Q96EY1
# Description: as §1
# [37] = molecular target: DNAJB1, P25685
# Description: as §1
# [38] = molecular target: DNAJB4, Q9UDY4
# Description: as §1
# [39] = molecular target: EDF1, O60869
# Description: as §1
# [40] = molecular target: EEFSEC, P57772
# Description: as §1
# [41] = molecular target: EGLN1, Q9GZT9
# Description: as §1
# [42] = molecular target: EHHADH, Q08426
# Description: as §1
# [43] = molecular target: EMG1, Q92979
# Description: as §1
# [44] = molecular target: EWSR1, Q01844
# Description: as §1
# [45] = molecular target: FAM98A, Q8NCA5
# Description: as §1
# [46] = molecular target: FBL, P22087
# Description: as §1
# [47] = molecular target: FKBP2, P26885
# Description: as §1
# [48] = molecular target: FTSJ3, Q8IY81
# Description: as §1
# [49] = molecular target: FUBP1, Q96AE4
# Description: as §1
# [50] = molecular target: FUS, P35637
# Description: as §1
# [51] = molecular target: GABARAPL2, P60520
# Description: as §1
# [52] = molecular target: GSK3B, P49841
# Description: as §1
# [53] = molecular target: GTPBP1, O00178
# Description: as §1
# [54] = molecular target: HMGB2, P26583
# Description: as §1
# [55] = molecular target: HNRNPA0, Q13151
# Description: as §1
# [56] = molecular target: HNRNPA1, P09651
# Description: as §1
# [57] = molecular target: HNRNPA2B1, P22626
# Description: as §1
# [58] = molecular target: HNRNPA3, P51991
# Description: as §1
# [59] = molecular target: HP1BP3, Q5SSJ5
# Description: as §1
# [60] = molecular target: IBA57, Q5T440
# Description: as §1
# [61] = molecular target: KHDRBS1, Q07666
# Description: as §1
# [62] = molecular target: KIF2C, Q99661
# Description: as §1
# [63] = molecular target: KIFC1, Q9BW19
# Description: as §1
# [64] = molecular target: LSM14A, Q8ND56
# Description: as §1
# [65] = molecular target: LSM14B, Q9BX40
# Description: as §1
# [66] = molecular target: MACF1
# Description: as §1
# [67] = molecular target: MAP4, P27816
# Description: as §1
# [68] = molecular target: MAP7D1, Q3KQU3
# Description: as §1
# [69] = molecular target: MAZ, P56270
# Description: as §1
# [70] = molecular target: MCAT, Q8IVS2
# Description: as §1
binder,measurement,setting,value
MTEYWVPEI [RCBTB2],PRISMA enrichment of interactor (log2),[1],4.95
same,PRISMA enrichment of interactor (log2),[2],5.78
same,PRISMA enrichment of interactor (log2),[3],5.94
same,PRISMA enrichment of interactor (log2),[4],5.14
same,PRISMA enrichment of interactor (log2),[5],5.91 ± 0.29
same,PRISMA enrichment of interactor (log2),[6],4.15
same,PRISMA enrichment of interactor (log2),[7],5.42
same,PRISMA enrichment of interactor (log2),[8],5.61
same,PRISMA enrichment of interactor (log2),[9],6.75
same,PRISMA enrichment of interactor (log2),[10],6.55
same,PRISMA enrichment of interactor (log2),[11],5.04
same,PRISMA enrichment of interactor (log2),[12],7.48
same,PRISMA enrichment of interactor (log2),[13],4.01
same,PRISMA enrichment of interactor (log2),[14],4.41
same,PRISMA enrichment of interactor (log2),[15],8.46
same,PRISMA enrichment of interactor (log2),[16],7.41
same,PRISMA enrichment of interactor (log2),[17],5.59
same,PRISMA enrichment of interactor (log2),[18],4.2
same,PRISMA enrichment of interactor (log2),[19],5.9
same,PRISMA enrichment of interactor (log2),[20],4.99
same,PRISMA enrichment of interactor (log2),[21],8.41
same,PRISMA enrichment of interactor (log2),[22],7.26
same,PRISMA enrichment of interactor (log2),[23],6.77
same,PRISMA enrichment of interactor (log2),[24],4.19
same,PRISMA enrichment of interactor (log2),[25],7.77
same,PRISMA enrichment of interactor (log2),[26],7.73
same,PRISMA enrichment of interactor (log2),[27],6.92
same,PRISMA enrichment of interactor (log2),[28],7.4
same,PRISMA enrichment of interactor (log2),[29],6.59
same,PRISMA enrichment of interactor (log2),[30],5.5
same,PRISMA enrichment of interactor (log2),[31],5.33
same,PRISMA enrichment of interactor (log2),[32],5.9
same,PRISMA enrichment of interactor (log2),[33],5.55
same,PRISMA enrichment of interactor (log2),[34],6.14
same,PRISMA enrichment of interactor (log2),[35],7.12
same,PRISMA enrichment of interactor (log2),[36],5.55
same,PRISMA enrichment of interactor (log2),[37],7.24
same,PRISMA enrichment of interactor (log2),[38],4.85
same,PRISMA enrichment of interactor (log2),[39],5.85
same,PRISMA enrichment of interactor (log2),[40],6.25
same,PRISMA enrichment of interactor (log2),[41],6.14
same,PRISMA enrichment of interactor (log2),[42],8.14
same,PRISMA enrichment of interactor (log2),[43],7.27
same,PRISMA enrichment of interactor (log2),[44],5.89
same,PRISMA enrichment of interactor (log2),[45],5.13
same,PRISMA enrichment of interactor (log2),[46],5.54
same,PRISMA enrichment of interactor (log2),[47],5.32
same,PRISMA enrichment of interactor (log2),[48],5.26
same,PRISMA enrichment of interactor (log2),[49],5.83
same,PRISMA enrichment of interactor (log2),[50],5.83
same,PRISMA enrichment of interactor (log2),[51],7.53
same,PRISMA enrichment of interactor (log2),[52],6.72
same,PRISMA enrichment of interactor (log2),[53],7.27
same,PRISMA enrichment of interactor (log2),[54],5.15
same,PRISMA enrichment of interactor (log2),[55],5.93
same,PRISMA enrichment of interactor (log2),[56],5.47
same,PRISMA enrichment of interactor (log2),[57],4.33
same,PRISMA enrichment of interactor (log2),[58],5.77
same,PRISMA enrichment of interactor (log2),[59],5.93
same,PRISMA enrichment of interactor (log2),[60],7.49
same,PRISMA enrichment of interactor (log2),[61],7.8
same,PRISMA enrichment of interactor (log2),[62],5.97
same,PRISMA enrichment of interactor (log2),[63],6.02
same,PRISMA enrichment of interactor (log2),[64],6.61
same,PRISMA enrichment of interactor (log2),[65],3.92
same,PRISMA enrichment of interactor (log2),[66],4.91
same,PRISMA enrichment of interactor (log2),[67],6.5
same,PRISMA enrichment of interactor (log2),[68],3.83
same,PRISMA enrichment of interactor (log2),[69],6.04 ± 1.5
same,PRISMA enrichment of interactor (log2),[70],4.6

# Quoted at random: three records from the list.
binder,measurement,setting,value
MTEYWVPEI [RCBTB2],PRISMA enrichment of interactor (log2),[52],6.72
same,PRISMA enrichment of interactor (log2),[51],7.53
same,PRISMA enrichment of interactor (log2),[66],4.91
